Measurements reported in PubChem BioAssay AID1259298 (Sanger Institute, 2017).

Test: 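Kinase knock-downs that cut colorectal cancer cell viability or act with targeted drugs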 (primary screen)
System: HT55 human colorectal cancer cell line
Reagent: siRNA pool against human genes
Treatment: anchor drug BYL719 1 µM, cetuximab 5 µg/ml or trametinib 10 nM, or DMSO vehicle alone
Measured: 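Mean viability over replicates versus non-targeting pool, a robust z-score without drug, and per-drug synergy scores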
Scale: robust z-score, knock-down alone: higher = more cells remaining; low means essential gene
Call rule: 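a gene counts as essential if its knock-down-alone robust z-score falls under -3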
Meaning of the calls: active = essential (knock-down alone); inactive = no change alone
In all, the deposit lists 794 reagents; below is an unselected part. In the full data, 20 (2.5%) are marked active. 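Calls rest only on the knock-down-alone score; drug synergy scores played no part in them.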 Unmarked entries are inactive. Not all columns of the deposit are shown. Not given: the amount of reagent, the time to read-out.

| Gene | robust z-score, knock-down alone |
| --- | --- |
| FASTK | 0.38 |
| DLG3 | 0.58 |
| PRKCE | 0.26 |
| ALPK1 | 0.58 |
| TRIB1 | 0.58 |
| CHUK | 0.58 |
| AK1 | 0.346 |
| FGFRL1 | 0.58 |
| CDC7 | 0.58 |
| PAPSS2 | 0.299 |
| TRIB2 | -0.718 |
| NEK6 | 0.58 |

Continued, starting with the last 3 of the part before.
| Gene | robust z-score, knock-down alone |
| --- | --- |
| PAPSS2 | 0.299 |
| TRIB2 | -0.718 |
| NEK6 | 0.58 |
| SGK3 | 0.58 |
| RIPK2 | 0.58 |
| AK5 | 0.337 |
| EPHA5 | 0.58 |
| EPHA8 | -1.32 |
| STRADB | 0.58 |
| GUCY2D | -2.48 |
| EPHB6 | 0.58 |
| CDC42BPA | -2.76 |
| PDIK1L | 0.562 |
| ZAP70 | -0.311 |
| RPS6KB2 | 0.58 |
| IP6K2 | 0.58 |
| GTF2H1 | -0.91 |
| STAG2 | 0.58 |
| MECOM | 0.58 |
| PLK3 | 0.58 |
| ACVR1C | -0.3 |
| HIPK4 | 0.58 |
| PRPS1 | -0.554 |
| MOS | 0.58 |
| EPHB3 | -0.771 |
